# Data as given in PubChem BioAssay AID1259308 (NCATS, 2017).
# Assay: 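Knock-downs that increase output of a recombinant reporter protein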 (primary screen)
# System: human HEK293 embryonic kidney cells stably expressing firefly luciferase (HEK-CMV-Luc2-Hygro)
# Reagent: single siRNA against human genes, 0.8 pmol siRNA per well
# Time to read-out: 72 h
# Measurement: 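Reporter luminescence and viable-cell signal on separate replicate plates, given as percent of non-targeting control and median/MAD z-scores, plus per-cell luciferase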
# Scale: total luciferase, z-score and total luciferase, % of control: higher = more reporter protein produced; luciferase per cell, z-score: higher = more reporter output per viable cell; viable cells, % of control: higher = more viable cells
# Rule for the call: 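Active when the median/MAD z-score for overall luciferase is greater than 3; a gene was taken forward for validation with new siRNAs if at least two of its three siRNAs passed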
# Meaning of the calls: active = raised luciferase; inactive = no rise
# Shown is one part, drawn at random, of about 59,000 reagents. In the full data, about 1,510 (2.6%) were called active. 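Calls use total luciferase alone and ignore viability, so some active siRNAs may act by altering cell number.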 Reagents against one gene are numbered here.
gene,reagent no.,"total luciferase, z-score","total luciferase, % of control","luciferase per cell, z-score","viable cells, % of control",Call
RAMP2 (GeneID 10266),1,-0.47,72.5,-0.589,94.7,inactive
RAMP2 (GeneID 10266),2,0.166,85.2,0.0605,93.7,inactive
RAMP2 (GeneID 10266),3,-0.848,65,-0.798,89.7,inactive
MARK2 (GeneID 2011),1,3.65,154,1.63,112,active
MARK2 (GeneID 2011),2,2.12,124,1.05,105,inactive
MARK2 (GeneID 2011),3,3.68,155,2.26,95.5,active
LHFPL6 (GeneID 10186),1,0.655,94.9,1.35,74.3,inactive
LHFPL6 (GeneID 10186),2,-1.19,58.3,-0.309,70.6,inactive
LHFPL6 (GeneID 10186),3,-0.46,72.7,-0.691,97.5,inactive
APOL5 (GeneID 80831),1,-0.879,64.4,-0.393,79.8,inactive
APOL5 (GeneID 80831),2,0.878,99.3,2.12,63.5,inactive
APOL5 (GeneID 80831),3,2.56,133,1.2,108,inactive
ANKRD40 (GeneID 91369),1,-1.26,56.8,-1.12,85.2,inactive
ANKRD40 (GeneID 91369),2,-1.5,52,-1.15,78.7,inactive
ANKRD40 (GeneID 91369),3,-0.559,70.8,-1.02,103,inactive
INTS14 (GeneID 81556),1,0.9,99.8,1.29,79.5,inactive
INTS14 (GeneID 81556),2,2.01,122,1.13,101,inactive
INTS14 (GeneID 81556),3,-0.493,72.1,-0.766,98.5,inactive
ESRRA (GeneID 2101),1,-1.54,51.3,-1.48,84.6,inactive
ESRRA (GeneID 2101),2,-0.597,70,-1.09,104,inactive
ESRRA (GeneID 2101),3,1.05,103,1.97,68.3,inactive
CIPC (GeneID 85457),1,1.84,118,1.39,91.9,inactive
CIPC (GeneID 85457),2,-0.842,65.1,-1.07,96.5,inactive
CIPC (GeneID 85457),3,-0.435,73.2,-0.351,89.8,inactive

Called active, of those listed so far:
gene,reagent no.,"total luciferase, z-score","total luciferase, % of control","luciferase per cell, z-score","viable cells, % of control",Call
MARK2 (GeneID 2011),1,3.65,154,1.63,112,active
MARK2 (GeneID 2011),3,3.68,155,2.26,95.5,active
